# Experimental data: PubChem BioAssay AID1347076 (National Center for Advancing Translational Sciences (NCATS), 2019)
# The campaign covered roughly 400,000 compounds. About 13,000 (3.2%) were called active. This list was built around the results that the source calls inconclusive (neither active nor inactive); the mix of calls is not that of the screen. Calls follow the shape of the dose curve; as a rule, active = well fitted cell-killing curve with a large enough effect; inconclusive = small, poorly fitted or top-dose-only effect, or effect the other way; inactive = flat fitted curve, though single readings scatter. A potency beside an inconclusive call is a rough fit, not a confirmed value.
# Experiment: qHTS assay for MDR1-selective chemotherapeutics: Primary screen using the drug-selected MDR subline cells KB-V1; also: nearly all actives have a fitted effect of over 60% in size
# Conditions: KB-V1 MDR cells viability, CellTiter-Glo, 72 h; activity change, negative = cytotoxicity: at 46.1 µM (top of the series)
# How it was run: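 Readout: CellTiter-Glo luminescence, 10 min after addition. Cells: KB-V1 MDR subline, 72 h at 37 degrees C with compound. Analysis: corrected, normalized data fitted to concentration-effect curves.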
# % is scaled to controls: 0 for no effect and ±100 for the full control effect; potency is read from the fitted curve at half-maximal effect.
SMILES,"activity change, negative = cytotoxicity",Potency
Cn1nccc1/C=C(/C#N)S(=O)(=O)c1ccccc1,inactive: 2.36%,–
CCCCOc1ccc(C2C(C(=O)c3ccc(C)o3)=C(O)C(=O)N2CC2CCCO2)cc1 (stereo not given),–,active: 11.6 µM
O=c1c(Br)c(N2CCCCC2)cnn1-c1ccccc1,–,"inconclusive: 16.4 µM [cytotoxic, single point]"
CCC1(C(=O)c2ccccc2)C(c2ccc([N+](=O)[O-])cc2)C1(C(=O)OC)C(=O)OC (stereo not given),–,"inconclusive: 3.26 µM [cytotoxic, partial curve]"
CCOC(=O)Cc1ccc(NC(=O)c2ccc([N+](=O)[O-])cc2)cc1,–,"inconclusive: 6.51 µM [cytotoxic, full curve]"
Clc1ccc(CSc2ncccn2)cc1,inactive: 1.82%,–
COc1ccc([C@@H]2CC=C(C(=O)O)[C@H](c3cccc(Cl)c3)N2S(=O)(=O)c2ccccc2C)cc1,inactive: 18.9%,–
O=C(COC(=O)C1CCN(c2ccc(C(F)(F)F)cn2)CC1)NC1CCCCC1,–,"inconclusive: 29.1 µM [rising, single point]"
COc1ccc(-c2cc3nc(-c4ccccc4)cc(N4CCC(O)CC4)n3n2)cc1,–,"inconclusive: 29.1 µM [cytotoxic, single point]"
O=C(CS(=O)CC(=O)N(CC(=O)NC1CCCC1)c1ccccc1F)Nc1ccc(F)cc1 (stereo not given),inactive: 2.2%,–
O=C(Nc1nc2c(F)cccc2s1)c1ccc([N+](=O)[O-])o1,inactive: 13.2%,–
Cc1cccc(OCCNC(=O)c2ccc(Cl)c(S(=O)(=O)NCc3cccnc3)c2)c1,–,"inconclusive: 32.6 µM [cytotoxic, single point]"
COc1ccccc1NC(=O)Cc1csc(NC(=S)Nc2ccccc2)n1,–,active: 9.2 µM
COc1ccccc1C1C(C(=O)c2cc3ccccc3o2)=C(O)C(=O)N1c1cc(C)on1 (stereo not given),inactive: -15.5%,–
CC(C)(C)c1nnc(N/N=C/c2ccc(O)cc2)n(N)c1=O,–,"inconclusive: 29.1 µM [rising, single point]"
CC(=O)N(C(C)=O)c1ccc2c(c1)OCCO2,inactive: 1.6%,–
CCCCCCn1cnc2c(oc3nc4c(cc32)CCCC4)c1=O,–,"inconclusive: 14.6 µM [cytotoxic, single point]"
CCOc1ccc(NC(=O)C2CCCN(C(=O)Nc3ccccc3)C2)cc1 (stereo not given),–,active: 14.6 µM
O=C(Nc1ccc([N+](=O)[O-])cc1)N1CCc2ccccc2C1,–,"inconclusive: 14.6 µM [cytotoxic, partial curve]"
CC1(C)C2CCC1(CS(=O)(=O)NCc1ccc(Cl)cc1Cl)C(=O)C2 (stereo not given),–,active: 10.3 µM
CCCN(Cc1cc2cc(C)ccc2[nH]c1=O)C(=O)c1cccc([N+](=O)[O-])c1,–,"inconclusive: 6.51 µM [cytotoxic, partial curve]"
COc1ccc(OC)c2c1C(=O)CC2C (stereo not given),–,"inconclusive: 20.6 µM [cytotoxic, single point]"
COc1ccc(C(=O)NC(C)c2ccc(-n3ccnc3)cc2)c(OC)c1OC (stereo not given),–,"inconclusive: 23.1 µM [cytotoxic, single point]"

SMILES,"activity change, negative = cytotoxicity",Potency
CNC(=S)N(CCc1ccc(OC)c(OC)c1)C1CC(=O)N(c2ccccc2)C1=O (stereo not given),–,"inconclusive: 20.6 µM [cytotoxic, single point]"
COc1ccc(OC)c(C(=O)CSc2nccc(-c3ccc(Br)cc3)n2)c1,–,"inconclusive: 8.2 µM [cytotoxic, partial curve]"
Cc1ccc(OCC(=O)NC(C)c2ccccc2)c([N+](=O)[O-])n1 (stereo not given),inactive: -8.09%,–
COc1ccc2[nH]c3c(c2c1)CCN1C(=O)N([C@@H](C)C(=O)NCCc2ccc(F)cc2)C(=O)[C@]31C,–,"inconclusive: 9.2 µM [cytotoxic, partial curve]"
COC(=O)c1ccc(CSc2nnc(CNC(=O)COc3ccc(Cl)cc3)o2)o1,–,"inconclusive: 10.3 µM [cytotoxic, single point]"
CCN(CC(=O)Nc1c(F)cccc1F)C(=O)c1ccc(N2CCCCC2)c([N+](=O)[O-])c1,–,"inconclusive: 29.1 µM [cytotoxic, single point]"
CCN(CC(=O)Nc1ccc2c(c1)OCCO2)C(=O)c1cccc(OCC(C)C)c1,–,"inconclusive: 10.3 µM [cytotoxic, partial curve]"
CCN(CC)c1ccc(/C=N/n2c(-c3ccccc3Br)n[nH]c2=S)cc1,inactive: -21.8%,–
CCn1nccc1C(=O)Nc1ccc(C)c(C)c1,inactive: -2.89%,–
O=C(c1cc([N+](=O)[O-])[nH]n1)N1CCSCC1,–,"inconclusive: 16.4 µM [rising, partial curve]"
CCOC(=O)/C=C/COc1ccccc1[N+](=O)[O-],inactive: -11.9%,–
COc1cc(CN2CCN(Cc3ccc(C)cc3)CC2)c([N+](=O)[O-])cc1OC,–,"inconclusive: 8.2 µM [cytotoxic, partial curve]"
COc1ccccc1-n1cnnc1SCC(=O)c1cc(C)n(Cc2cccs2)c1C,–,active: 16.4 µM
CCOc1cc2[nH]c(=O)n(CCCCC(=O)N3CCN(c4ccccc4OC)CC3)c(=O)c2cc1OCC,inactive: 27.3%,–
COc1ccc(C(=O)NNS(=O)(=O)c2ccc(C)cc2)cc1,inactive: 10.3%,–
Fc1ccccc1CN1CCC(Cc2ccccc2)CC1,–,"inconclusive: 14.6 µM [cytotoxic, partial curve, poor fit]"
COc1cc(CNn2cn[nH]c2=S)cc(Br)c1OCc1ccccc1F,inactive: -44.1%,–
CCOc1ccc(-n2c(SCc3nc(-c4ccc(C)cc4)no3)nnc2-c2ccncc2)cc1,–,"inconclusive: 23.1 µM [cytotoxic, single point]"
CC(C)CCn1c(=O)c2c(nc3n2CCCN3Cc2ccccc2)n(C)c1=O,–,"inconclusive: 18.4 µM [cytotoxic, single point]"
CC(C)c1ccc(C(=O)N2CCN(c3cnn(C)c(=O)c3Cl)CC2)cc1,–,"inconclusive: 10.3 µM [cytotoxic, partial curve]"
Cc1cccc(C)c1NC(=S)N(CCCN1CCCCC1)Cc1ccco1,–,"inconclusive: 9.2 µM [cytotoxic, partial curve]"
C=CCOC(=O)C1=C[C@H](C2CCCCC2)[C@@H](CCCO)[C@H](OCC)O1,–,"inconclusive: 2.91 µM [cytotoxic, full curve]"

# Some of these compounds in order of SMILES length, smallest number first.
SMILES,"activity change, negative = cytotoxicity",Potency
O=c1c(Br)c(N2CCCCC2)cnn1-c1ccccc1,–,"inconclusive: 16.4 µM [cytotoxic, single point]"
Cc1cccc(C)c1NC(=S)N(CCCN1CCCCC1)Cc1ccco1,–,"inconclusive: 9.2 µM [cytotoxic, partial curve]"
CCOc1ccc(NC(=O)C2CCCN(C(=O)Nc3ccccc3)C2)cc1 (stereo not given),–,active: 14.6 µM
O=C(CS(=O)CC(=O)N(CC(=O)NC1CCCC1)c1ccccc1F)Nc1ccc(F)cc1 (stereo not given),inactive: 2.2%,–
